Values joined by “and” are separate entries in the source; they are usually repeats but may differ in a detail not shown here. Equal values may be shown once. Inconclusive results, whose numbers are uncertain, are shown with a selection of clear calls. For some assays here: Where the call is inconclusive, the potency comes from a doubtful curve fit. Some structures have more than one record in an assay (separate samples or runs), and their calls can disagree. Active and inactive are the calls of the source. The calls were made as follows: active = hit-call score of the fitted dose curve at least 0.9, where 1 is the maximum; inconclusive = response in the unintended direction; inactive = score below 0.9.
Columns and labels:
[1] = Tanguay_ZF_120hpf_BRAI_legacy: (Legacy) Oregon State University Tanguay Lab 120 Hour Post-fertilization zebrafish Assay for Brain Malformation (AID 2283641)
Summary of the method: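 Binary brightfield scoring of brain malformation at 120 hpf in Tropical 5D larvae held under static exposure at 28C (0.64% v/v DMSO), non-mortality endpoints skipped if dead. Positive control: 5uM trimethyltin chloride; fit versus DMSO.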

Amino acid sequences for entries named in this document (tags omitted). A change or cut given only in a name is not applied to a line headed by its entry.
UniProt P21709: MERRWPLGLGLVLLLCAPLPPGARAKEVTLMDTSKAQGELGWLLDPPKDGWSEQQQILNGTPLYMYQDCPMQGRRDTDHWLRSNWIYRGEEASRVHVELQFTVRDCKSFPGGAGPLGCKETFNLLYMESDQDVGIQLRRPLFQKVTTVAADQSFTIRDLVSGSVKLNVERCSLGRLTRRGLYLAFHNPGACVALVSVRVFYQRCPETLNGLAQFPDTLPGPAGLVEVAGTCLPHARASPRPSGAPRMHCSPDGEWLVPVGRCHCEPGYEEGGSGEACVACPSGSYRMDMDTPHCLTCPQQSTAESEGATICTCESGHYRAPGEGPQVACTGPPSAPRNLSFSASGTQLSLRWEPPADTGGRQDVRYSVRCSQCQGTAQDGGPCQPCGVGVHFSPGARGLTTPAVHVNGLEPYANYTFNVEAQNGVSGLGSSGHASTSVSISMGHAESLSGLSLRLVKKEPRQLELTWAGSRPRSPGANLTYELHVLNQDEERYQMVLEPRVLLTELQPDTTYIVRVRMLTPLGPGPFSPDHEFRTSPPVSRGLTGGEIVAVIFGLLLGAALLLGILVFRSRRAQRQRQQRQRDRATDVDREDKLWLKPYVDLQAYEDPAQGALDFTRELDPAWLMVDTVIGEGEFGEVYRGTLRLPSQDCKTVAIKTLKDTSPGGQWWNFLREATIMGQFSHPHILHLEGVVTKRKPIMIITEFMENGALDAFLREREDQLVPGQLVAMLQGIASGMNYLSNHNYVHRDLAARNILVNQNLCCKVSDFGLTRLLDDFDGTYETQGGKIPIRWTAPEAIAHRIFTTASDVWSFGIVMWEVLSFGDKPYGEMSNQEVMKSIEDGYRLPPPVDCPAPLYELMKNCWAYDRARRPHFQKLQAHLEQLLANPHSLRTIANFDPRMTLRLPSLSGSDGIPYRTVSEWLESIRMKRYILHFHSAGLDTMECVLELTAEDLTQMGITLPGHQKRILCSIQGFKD
UniProt P42336, whole entry, looked up: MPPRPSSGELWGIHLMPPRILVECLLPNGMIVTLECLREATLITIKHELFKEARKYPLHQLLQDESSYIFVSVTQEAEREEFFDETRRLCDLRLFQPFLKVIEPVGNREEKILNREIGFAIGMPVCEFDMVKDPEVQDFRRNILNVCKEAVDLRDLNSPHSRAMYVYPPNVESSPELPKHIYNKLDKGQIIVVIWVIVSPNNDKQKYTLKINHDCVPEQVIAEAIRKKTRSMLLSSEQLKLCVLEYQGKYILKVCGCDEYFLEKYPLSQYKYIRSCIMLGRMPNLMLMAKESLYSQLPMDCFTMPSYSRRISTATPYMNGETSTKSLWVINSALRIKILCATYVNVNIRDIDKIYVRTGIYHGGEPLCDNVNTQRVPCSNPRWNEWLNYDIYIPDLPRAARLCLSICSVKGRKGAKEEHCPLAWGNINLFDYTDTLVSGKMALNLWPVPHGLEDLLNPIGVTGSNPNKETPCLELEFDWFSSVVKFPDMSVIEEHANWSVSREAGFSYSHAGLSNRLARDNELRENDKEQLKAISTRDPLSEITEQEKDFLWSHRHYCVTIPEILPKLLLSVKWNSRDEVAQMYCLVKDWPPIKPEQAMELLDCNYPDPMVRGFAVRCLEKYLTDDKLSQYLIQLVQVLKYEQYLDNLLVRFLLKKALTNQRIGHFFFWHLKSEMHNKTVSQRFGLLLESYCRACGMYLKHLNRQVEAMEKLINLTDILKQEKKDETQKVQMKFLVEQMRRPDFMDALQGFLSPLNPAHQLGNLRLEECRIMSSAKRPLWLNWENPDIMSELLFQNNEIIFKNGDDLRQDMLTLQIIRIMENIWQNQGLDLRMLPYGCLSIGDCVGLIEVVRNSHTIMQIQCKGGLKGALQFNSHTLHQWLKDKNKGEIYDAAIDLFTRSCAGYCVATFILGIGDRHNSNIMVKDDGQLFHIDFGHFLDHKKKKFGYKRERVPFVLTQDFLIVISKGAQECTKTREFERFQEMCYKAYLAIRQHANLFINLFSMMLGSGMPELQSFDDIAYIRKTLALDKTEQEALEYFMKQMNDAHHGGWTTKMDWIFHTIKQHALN
UniProt P33261, whole entry, looked up: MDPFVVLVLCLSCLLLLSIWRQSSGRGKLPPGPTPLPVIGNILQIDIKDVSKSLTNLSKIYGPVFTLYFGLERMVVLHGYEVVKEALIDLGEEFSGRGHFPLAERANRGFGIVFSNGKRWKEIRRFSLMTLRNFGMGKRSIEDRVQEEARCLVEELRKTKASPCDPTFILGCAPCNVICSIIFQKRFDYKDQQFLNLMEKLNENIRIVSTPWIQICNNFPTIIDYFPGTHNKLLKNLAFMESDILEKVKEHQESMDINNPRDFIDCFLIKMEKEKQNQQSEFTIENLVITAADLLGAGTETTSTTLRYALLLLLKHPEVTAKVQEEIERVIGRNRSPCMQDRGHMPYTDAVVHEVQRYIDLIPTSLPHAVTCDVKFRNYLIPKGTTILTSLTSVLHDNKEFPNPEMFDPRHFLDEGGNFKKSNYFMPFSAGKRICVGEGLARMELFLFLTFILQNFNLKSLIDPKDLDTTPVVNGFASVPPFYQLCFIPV
UniProt P49884, whole entry, looked up: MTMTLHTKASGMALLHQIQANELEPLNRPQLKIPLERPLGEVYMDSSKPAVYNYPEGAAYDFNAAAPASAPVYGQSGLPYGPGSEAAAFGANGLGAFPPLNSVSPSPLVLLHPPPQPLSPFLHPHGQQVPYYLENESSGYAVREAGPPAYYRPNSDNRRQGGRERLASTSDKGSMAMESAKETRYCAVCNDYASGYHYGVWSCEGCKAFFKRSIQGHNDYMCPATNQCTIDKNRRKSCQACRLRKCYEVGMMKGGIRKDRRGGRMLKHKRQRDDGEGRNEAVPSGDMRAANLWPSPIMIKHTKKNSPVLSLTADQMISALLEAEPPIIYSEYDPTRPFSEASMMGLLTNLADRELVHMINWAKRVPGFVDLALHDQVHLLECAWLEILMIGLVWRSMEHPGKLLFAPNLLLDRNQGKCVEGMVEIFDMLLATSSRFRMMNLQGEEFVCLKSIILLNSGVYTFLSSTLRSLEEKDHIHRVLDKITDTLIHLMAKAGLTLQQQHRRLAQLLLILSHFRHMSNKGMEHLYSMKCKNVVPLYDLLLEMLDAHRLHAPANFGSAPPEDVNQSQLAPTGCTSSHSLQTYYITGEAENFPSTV
UniProt P19785, whole entry, looked up: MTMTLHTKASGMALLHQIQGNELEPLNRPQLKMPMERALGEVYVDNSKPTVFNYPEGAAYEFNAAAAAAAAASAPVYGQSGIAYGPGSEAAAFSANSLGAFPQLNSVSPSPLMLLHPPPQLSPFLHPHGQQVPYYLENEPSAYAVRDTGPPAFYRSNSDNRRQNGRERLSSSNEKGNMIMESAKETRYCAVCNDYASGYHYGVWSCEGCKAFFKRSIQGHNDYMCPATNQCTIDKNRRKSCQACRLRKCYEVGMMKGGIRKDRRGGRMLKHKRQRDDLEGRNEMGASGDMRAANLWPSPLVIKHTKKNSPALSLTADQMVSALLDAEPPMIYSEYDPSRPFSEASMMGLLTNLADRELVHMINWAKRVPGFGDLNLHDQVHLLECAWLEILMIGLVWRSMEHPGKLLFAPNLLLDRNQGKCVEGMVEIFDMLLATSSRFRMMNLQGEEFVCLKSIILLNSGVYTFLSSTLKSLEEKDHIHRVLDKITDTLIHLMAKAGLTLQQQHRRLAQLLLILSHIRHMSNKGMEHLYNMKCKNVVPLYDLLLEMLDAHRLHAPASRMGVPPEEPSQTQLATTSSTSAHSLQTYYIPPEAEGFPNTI
UniProt Q92731, whole entry, looked up: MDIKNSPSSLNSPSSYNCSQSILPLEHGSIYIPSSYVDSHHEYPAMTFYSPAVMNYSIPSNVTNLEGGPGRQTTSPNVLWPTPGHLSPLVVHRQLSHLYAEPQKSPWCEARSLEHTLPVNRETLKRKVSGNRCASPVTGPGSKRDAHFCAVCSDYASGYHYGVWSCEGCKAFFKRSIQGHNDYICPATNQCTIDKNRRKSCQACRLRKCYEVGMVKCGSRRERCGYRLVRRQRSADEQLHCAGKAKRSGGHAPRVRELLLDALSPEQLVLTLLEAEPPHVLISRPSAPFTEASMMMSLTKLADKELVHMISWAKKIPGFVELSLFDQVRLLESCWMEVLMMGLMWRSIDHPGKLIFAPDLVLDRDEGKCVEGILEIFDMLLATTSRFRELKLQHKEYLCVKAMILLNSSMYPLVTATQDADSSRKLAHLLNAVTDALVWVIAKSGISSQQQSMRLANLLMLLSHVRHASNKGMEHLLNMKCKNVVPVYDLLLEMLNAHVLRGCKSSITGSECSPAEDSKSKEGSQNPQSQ
UniProt O75469: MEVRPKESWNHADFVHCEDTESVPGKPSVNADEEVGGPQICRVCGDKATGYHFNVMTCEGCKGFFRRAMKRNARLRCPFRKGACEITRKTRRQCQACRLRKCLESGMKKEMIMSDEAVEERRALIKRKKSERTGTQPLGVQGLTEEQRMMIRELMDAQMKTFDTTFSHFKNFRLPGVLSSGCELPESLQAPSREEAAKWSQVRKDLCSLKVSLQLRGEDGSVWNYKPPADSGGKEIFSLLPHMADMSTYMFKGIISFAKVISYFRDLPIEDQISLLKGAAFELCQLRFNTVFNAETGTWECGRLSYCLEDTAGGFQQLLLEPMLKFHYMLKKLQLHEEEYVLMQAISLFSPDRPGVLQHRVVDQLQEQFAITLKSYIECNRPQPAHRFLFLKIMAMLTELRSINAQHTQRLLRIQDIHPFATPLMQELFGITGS
UniProt Q96RI1: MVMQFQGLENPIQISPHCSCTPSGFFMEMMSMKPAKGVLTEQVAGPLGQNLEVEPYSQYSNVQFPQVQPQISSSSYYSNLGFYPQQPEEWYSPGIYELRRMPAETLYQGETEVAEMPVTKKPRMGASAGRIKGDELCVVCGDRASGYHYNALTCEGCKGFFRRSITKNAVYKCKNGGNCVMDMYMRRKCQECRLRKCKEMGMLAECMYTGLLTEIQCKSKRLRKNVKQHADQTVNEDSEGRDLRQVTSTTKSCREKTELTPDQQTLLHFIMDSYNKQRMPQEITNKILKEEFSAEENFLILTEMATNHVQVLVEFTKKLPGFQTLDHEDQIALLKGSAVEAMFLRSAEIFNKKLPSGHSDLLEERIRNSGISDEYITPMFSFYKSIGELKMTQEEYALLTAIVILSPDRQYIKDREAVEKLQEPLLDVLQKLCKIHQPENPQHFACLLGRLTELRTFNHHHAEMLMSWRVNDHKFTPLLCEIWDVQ

[2] = Tanguay_ZF_120hpf_TRUN_legacy: (Legacy) Oregon State University Tanguay Lab 120 Hour Post-fertilization zebrafish Assay for Truncated Body (AID 2283655)
Summary of the method: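 Binary presence/absence of truncated body is recorded at 120 hpf by brightfield, with non-mortality endpoints skipped after death. Exposure is static from 6 hpf in sealed dark plates at 28C, using dechorionated wild-type zebrafish, 0.64% DMSO.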

[3] = biological target: human Ephrin type-A Receptor 1 (EphA1), EPHA1 (gene 2041) (UniProt P21709); experiment: NVS_ENZ_hEphA1: NovaScreen (NVS) Enzymatic Assay for human Ephrin type-A Receptor 1 (EphA1) (AID 2283158);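 also: activity is signal loss versus DMSO meaning EphA1 kinase inhibition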
Summary of the method: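 Fluorescent substrate conversion, resolved by mobility-shift separation, measured 1 hour post-dosing using recombinant enzyme; signal loss relative to DMSO baseline. Single-concentration duplicates at 25 uM preceded singleton concentration series topping at 50 uM.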

[4] = biological target: human Phosphoinositide 3-kinase alpha (PI3Ka), PIK3CA (gene 5290) (UniProt P42336); experiment: NVS_ENZ_hPI3Ka: NovaScreen (NVS) Enzymatic Assay for human Phosphoinositide 3-kinase alpha (PI3Ka) (AID 2283196)
Summary of the method: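 Enzyme activity as fluorescence after mobility-shift separation of substrate and product, 1 h reaction, recombinant human PI3Kα; concentration-response to 50 uM max for chemicals passing a 25 uM duplicate screen.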

[5] = Tanguay_ZF_120hpf_TR_legacy: (Legacy) Oregon State University Tanguay Lab 120 Hour Post-fertilization zebrafish Assay for Touch Response (AID 2283667)
Summary of the method: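 Tropical 5D wild-type zebrafish embryos statically exposed to 120 hpf at 28°C, sealed and dark-covered, 0.64% DMSO final; touch response scored as present/absent by brightfield microscopy at 120 hpf. Trimethyltin chloride 5 uM positive control; dead embryos not scored.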

[6] = read-out: Cytochrome P450 2C19 (Homo sapiens) (UniProt P33261); experiment: CLD_CYP2C19_24hr: CellzDirect (CLD) Gene Expression Assay for xenobiotic metabolism (CYP2C19) at 24 hours (AID 2283687);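 as to outcome: activity means mRNA induction above DMSO vehicle baseline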
Summary of the method: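 Primary human hepatocytes (two donor preparations) dosed daily with fresh test chemical in 0.2% DMSO vehicle; CYP2C19 mRNA induction measured at 24 h by quantitative nuclease protection assay with chemiluminescence, fitted for gain of signal versus DMSO.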

[7] = CLD_ACTIN_48hr: CellzDirect (CLD) Gene Expression Assay for Baseline Control (Actin) at 48 hours (AID 2283702)
Summary of the method: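 Primary human hepatocytes (two donor preparations) dosed daily for two days with ToxCast chemicals at multiple concentrations versus 0.2% DMSO vehicle; harvested at 48 h. Actin mRNA measured as a background control by quantitative nuclease protection assay with chemiluminescence.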

[8] = CCTE_Shafer_MEA_acute_AB: CCTE's Alamar Blue Assay for Cytotoxicity in the Neural Acute Assay, Shafer Lab (AID 2284069);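 also: active compounds lower the viability signal compared with DMSO wells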
Summary of the method: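 Resazurin reduction (CellTiter Blue, 1:6 in fresh medium) read at ex 544/em 590 nm marks viability loss relative to DMSO. Cells: primary rat cortical neuron networks on microelectrode arrays, treated after baseline recording at 13 or 15 days in vitro.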

[9] = Tanguay_ZF_120hpf_CFIN_legacy: (Legacy) Oregon State University Tanguay Lab 120 Hour Post-fertilization zebrafish Assay for Caudal Fin Malformation (AID 2283649)
Summary of the method: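 Binary brightfield scoring of caudal fin defects at 120 hpf after static, light-shielded exposure at 28C from 6 hpf. Tropical 5D embryos, chorion removed with pronase at 4 hpf, final DMSO 0.64%.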

[10] = biological target: bovine Estrogen Receptor (ER), ESR1 (gene 407238) (UniProt P49884); experiment: NVS_NR_bER: NovaScreen (NVS) Nuclear Receptor Binding Assay for bovine Estrogen Receptor (ER) (AID 2283345);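 also: actives lower the bound radioligand count which means they displace the ER ligand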
Summary of the method: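 Displacement of a radioligand from estrogen receptor in bovine uterine membrane preparations; scintillation signal taken at 18 hours, DMSO as baseline. Single-concentration duplicates (25 uM) preceded concentration-response follow-up of actives.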

[11] = biological target: mouse Estrogen Receptor alpha (Era), Esr1 (gene 13982) (UniProt P19785); experiment: NVS_NR_mERa: NovaScreen (NVS) Nuclear Receptor Binding Assay for mouse Estrogen Receptor alpha (Era) (AID 2283378);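 also: hit means loss of bound radioligand signal relative to DMSO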
Summary of the method: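 Filter radiodetection of radioligand displacement from extracted receptor protein, measured 18 h post-dose. Single 25 uM concentration in duplicate initially, with concentration-series follow-up. Binding loss fitted relative to DMSO.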

[12] = Tanguay_ZF_120hpf_CIRC_legacy: (Legacy) Oregon State University Tanguay Lab 120 Hour Post-fertilization zebrafish Assay for Circulatory Malformation (AID 2283651)
Summary of the method: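 Using wild-type Tropical 5D zebrafish, we exposed dechorionated embryos from 6 to 120 hpf in embryo medium with 0.64% DMSO. Circulatory defects were scored as present or absent; 5uM trimethyltin chloride served as positive control.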

[13] = biological target: Estrogen receptor beta (Homo sapiens) (UniProt Q92731); experiment: OT_ER_ERbERb_0480: Odyssey Thera (OT) 8-hour HEK293T Protein-Complementation Assay for Estrogen Receptor-beta/-beta Homodimer (AID 2283357);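 also: active means signal gain over DMSO baseline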
Summary of the method: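 Fluorescence intensity, nuclear for agonists and nuclear plus cytoplasmic for antagonists, was quantified by laser scanning cytometry versus vehicle after 8 h treatment. The cells were HEK293T stably carrying ER beta LBD fragment-complementation partners.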

[14] = CCTE_Shafer_MEA_dev_AB: CCTE's Alamar Blue Assay for Cytotoxicity in the Neural Network Formation Assay, Shafer Lab (AID 2284083);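 also: resazurin reduction fluorescence as viability of cultured neurons; twelve days of exposure from plating with re-dosing on DIV 5 and 9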
Summary of the method: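 Resazurin fluorescence, relative to DMSO, gauges viability after twelve days of exposure that began at plating of rat cortical neurons (1.5 x 10^5 cells/well, 48-well MEA); treatment renewed with full medium exchange on DIV 5 and 9.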

[15] = CCTE_Mundy_HCI_hNP1_Pro_ResponderAvgInten: CCTE's Proliferation Assay in human neuroprogenitor cells, Mundy Lab (AID 2284224);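 also: human neural progenitor cells hNP1 derived from WA09 embryonic stem cells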
Summary of the method: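 Proliferation read as average intensity of BrdU-positive cells, imaged at 26.25 h post-dosing: chemical exposure started after 40–44 h culture, BrdU during final 4 h, paraformaldehyde fixation. Positive-direction fit relative to DMSO.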

[16] = Tanguay_ZF_120hpf_SOMI_legacy: (Legacy) Oregon State University Tanguay Lab 120 Hour Post-fertilization zebrafish Assay for Somite Malformation (AID 2283647)
Summary of the method: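 Binary somite-defect scoring at 120 hpf, omitted for embryos that died, in wild-type (Tropical 5D) zebrafish with chorion removed by pronase at 4 hpf; static exposure began 6 hpf, single embryos per well, 28C, 0.64% DMSO; fitted positive versus DMSO.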

[17] = ATG_Hpa5_TRANS: Attagene TRANS-FACTORIAL HepG2 Assay for human GAL4-Hpa5 Hepatocyte Transcription Factor Basal Promoter (AID 2282975); conditions: HepG2 Attagene GAL4-Hpa5 transcription reporter;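 as to outcome: hits are increases in reporter mRNA over DMSO baseline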
Summary of the method: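 Basal-promoter GAL4 background control within the HepG2 trans-factorial panel of transiently transfected reporter units. Reporter mRNA is measured 24 h after dosing by RT-PCR and capillary electrophoresis, fitted for gain of signal versus DMSO.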

[18] = biological target: Nuclear receptor subfamily 1 group I member 2 (Homo sapiens) (UniProt O75469); experiment: NVS_NR_hPXR: NovaScreen (NVS) Nuclear Receptor Binding Assay for human Pregnane X Receptor (PXR) (AID 2283365);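 also: a drop in FRET signal versus DMSO baseline means the compound binds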
Summary of the method: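 Human PXR binding measured by TR-FRET in a cell-free format, 2 h exposure. Single-concentration duplicates at 25 uM preceded concentration-response retests of actives; endpoint fitted positively relative to DMSO, loss of signal indicating binding.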

[19] = read-out: sulfotransferase (SULT2A), SULT2A1 (gene 6822); experiment: CLD_SULT2A_6hr: CellzDirect (CLD) Gene Expression Assay for sulfotransferase (SULT2A) at 6 hours (AID 2283669);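 also: hits raise transcript level above the DMSO vehicle baseline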
Summary of the method: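 Primary human hepatocytes from two donor preparations were dosed daily with chemicals or 0.2% DMSO and harvested at 6 h. Transcript induction read by qNPA chemiluminescence, fitted for gain of signal relative to DMSO; morphology-based cytotoxicity annotated.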

[20] = biological target: Bile acid receptor (Homo sapiens) (UniProt Q96RI1); experiment: OT_FXR_FXRSRC1_0480: Odyssey Thera (OT) 8-hour HEK293T Protein-Complementation Assay for Farnesoid X receptor/SRC-1 Co-activator (AID 2283383)
Summary of the method: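 Co-activator recruitment to FXR was measured in living HEK293T cells, where interaction of the two fused partners restored an active fluorescent reporter. Signal gain after 8 h treatment was referenced to DMSO.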

**Q.** What does the source list for Nc1cc2c3c(c1)C(c1ccccc1)=N[C@@H](NC(=O)c1cccnc1)C(=O)N3CC2?
**A.** AC50 [1]: inconclusive: 63 µM; outcome [2]: inactive

**Q.** Which results are given for ClCCCCl?
**A.** AC50 [3]: active: 10.5 µM; AC50 [4]: inconclusive: 25.5 µM

**Q.** Which AC50 [2] does the source give for CCCCC(C#N)(Cn1cncn1)c1ccc(Cl)cc1 (centres undefined) here?
**A.** active: 48 µM

**Q.** And the AC50 [5]?
**A.** active: 50.7 µM

**Q.** And the AC50 [6]?
**A.** inconclusive: 20 µM

**Q.** And the AC50 [7]?
**A.** inconclusive: 20 µM

**Q.** Which AC50 [8] does the source give for COc1ccc(CO)cc1 here?
**A.** inconclusive: 15 µM

**Q.** For COP(=S)(OC)Oc1c(Cl)cc(C)cc1Cl, which outcome [4] is on record?
**A.** inactive

**Q.** Which AC50 [4] does the source give for ClCCOCCCl here?
**A.** inconclusive: 25 µM

**Q.** And the outcome [9]?
**A.** inactive

**Q.** And the outcome [8]?
**A.** inactive

**Q.** For COC(=O)c1cc(Oc2ccc(Cl)cc2Cl)ccc1[N+](=O)[O-], which AC50 [10] is on record?
**A.** inconclusive: 43.4 µM

**Q.** And the outcome [11]?
**A.** inactive

**Q.** What does the source list for OCC(c1ccc(Cl)cc1)c1ccc(Cl)cc1?
**A.** outcome [10]: inactive; outcome [11]: inactive

**Q.** Which AC50 [11] does the source give for ClC1=C(Cl)[C@]2(Cl)[C@H]3[C@H]([C@H]4C=C[C@H]3C4)[C@@]1(Cl)C2(Cl)Cl here?
**A.** inconclusive: 25 µM

**Q.** With CCCCCCCCc1ccc(O)cc1 as the compound, how does the outcome [9] read?
**A.** inactive

**Q.** What about the AC50 [12] of the same compound?
**A.** inconclusive: 29.7 µM

**Q.** What does the source list for CN(C)C(=S)S?
**A.** AC50 [13]: inconclusive: 50 µM; AC50 [9]: inconclusive: 3.65 µM; outcome [5]: inactive; outcome [8]: inactive

**Q.** Which results are given for Oc1ccc(C2(c3ccc(O)cc3)c3ccccc3-c3ccccc32)cc1?
**A.** outcome [10]: inactive; AC50 [11]: active: 0.432 µM; AC50 [8]: inconclusive: 15 µM

**Q.** Which AC50 [10] does the source give for BrCCBr here?
**A.** inconclusive: 0.374 µM

**Q.** And the AC50 [11]?
**A.** inconclusive: 45.2 µM

**Q.** With COP(=S)(OC)SCN1C(=O)c2ccccc2C1=O as the compound, how does the AC50 [14] read?
**A.** active: 31.7 µM

**Q.** And the outcome [14]?
**A.** inactive

**Q.** What about the AC50 [15] of the same compound?
**A.** inconclusive: 24 nM

**Q.** What about the outcome [15] of the same compound?
**A.** inactive

**Q.** Which outcome [3] does the source give for COc1ccccc1N here?
**A.** inactive

**Q.** What about the AC50 [16] of the same compound?
**A.** inconclusive: 26.8 µM

**Q.** What about the AC50 [9] of the same compound?
**A.** inconclusive: 0.766 µM

**Q.** What about the AC50 [2] of the same compound?
**A.** inconclusive: 9.07 µM

**Q.** Which AC50 [3] does the source give for CCCCCCCCCCCCc1cccc(S(=O)(=O)O)c1 here?
**A.** active: 32.9 µM

**Q.** What about the AC50 [4] of the same compound?
**A.** active: 7.17 µM

**Q.** What about the AC50 [9] of the same compound?
**A.** inconclusive: 136 µM

**Q.** For CN(C)[C@@H]1C(=O)C(C(N)=O)=C(O)[C@@]2(O)C(=O)C3=C(O)c4c(O)cccc4[C@@](C)(O)[C@H]3[C@H](O)[C@@H]12, which outcome [17] is on record?
**A.** inactive

**Q.** And the outcome [3]?
**A.** inactive

**Q.** What about the AC50 [4] of the same compound?
**A.** active: 4.72 µM and active: 4.22 µM and active: 15.1 µM

**Q.** And the AC50 [18]?
**A.** active: 2.08 µM

**Q.** What about the outcome [18] of the same compound?
**A.** inactive

**Q.** And the AC50 [1]?
**A.** inconclusive: 120 µM

**Q.** What about the outcome [12] of the same compound?
**A.** inactive

**Q.** What about the AC50 [5] of the same compound?
**A.** inconclusive: 85.7 µM

**Q.** What about the AC50 [19] of the same compound?
**A.** inconclusive: 20 µM

**Q.** And the outcome [6]?
**A.** inactive

**Q.** Which results are given for CC(C)(C)CC(C)(C)c1ccc(O)cc1?
**A.** AC50 [18]: inconclusive: 25 µM and inconclusive: 36.1 nM; AC50 [20]: inconclusive: 23.4 µM and inconclusive: 22.2 µM and active: 11.2 µM; AC50 [1]: inconclusive: 104 µM; AC50 [12]: inconclusive: 181 µM

**Q.** What does the source list for S=C1NCCN1?
**A.** AC50 [17]: inconclusive: 50 µM; AC50 [12]: inconclusive: 35.6 µM; AC50 [19]: inconclusive: 5.83 µM; outcome [14]: inactive; outcome [15]: inactive

From PubChem BioAssay (EPA / NIEHS)
